From ChEMBL document CHEMBL4330088, “Targeting the immunity protein kinases for immuno-oncology” (Eur J Med Chem, 2019)

By UniProt entry, the sequences of proteins in these tests, tags left out. Where a name states a change or a piece, a line headed by the entry shows the natural chain unless it says otherwise.
UniProt P42338: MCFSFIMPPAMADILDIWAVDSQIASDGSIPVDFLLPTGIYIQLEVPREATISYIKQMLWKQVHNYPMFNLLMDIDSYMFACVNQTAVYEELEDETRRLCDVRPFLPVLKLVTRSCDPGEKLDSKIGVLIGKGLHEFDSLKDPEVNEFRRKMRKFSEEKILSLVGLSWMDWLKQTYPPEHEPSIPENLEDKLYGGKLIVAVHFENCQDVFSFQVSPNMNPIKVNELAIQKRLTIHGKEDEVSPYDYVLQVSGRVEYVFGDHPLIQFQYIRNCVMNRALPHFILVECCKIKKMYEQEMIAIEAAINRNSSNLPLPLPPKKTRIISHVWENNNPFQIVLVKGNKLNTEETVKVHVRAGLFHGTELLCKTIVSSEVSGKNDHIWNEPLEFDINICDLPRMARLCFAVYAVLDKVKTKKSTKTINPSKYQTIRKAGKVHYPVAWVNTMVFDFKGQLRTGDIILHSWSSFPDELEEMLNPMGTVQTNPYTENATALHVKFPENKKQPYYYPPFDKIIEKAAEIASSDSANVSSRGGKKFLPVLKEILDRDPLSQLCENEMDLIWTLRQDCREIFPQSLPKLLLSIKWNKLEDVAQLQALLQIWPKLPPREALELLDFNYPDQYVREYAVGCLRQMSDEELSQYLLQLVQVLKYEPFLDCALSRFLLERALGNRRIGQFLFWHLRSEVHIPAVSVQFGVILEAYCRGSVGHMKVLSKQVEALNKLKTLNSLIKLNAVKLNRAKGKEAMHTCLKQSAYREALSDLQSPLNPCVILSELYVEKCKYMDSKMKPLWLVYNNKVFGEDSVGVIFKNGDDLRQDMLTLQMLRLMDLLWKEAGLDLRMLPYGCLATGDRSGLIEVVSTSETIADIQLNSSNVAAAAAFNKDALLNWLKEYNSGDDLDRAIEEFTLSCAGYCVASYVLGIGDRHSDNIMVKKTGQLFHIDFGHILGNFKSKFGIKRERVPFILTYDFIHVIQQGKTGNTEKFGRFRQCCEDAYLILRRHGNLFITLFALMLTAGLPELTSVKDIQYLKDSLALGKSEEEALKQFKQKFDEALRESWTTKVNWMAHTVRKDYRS

Molecular target: Phosphatidylinositol 4,5-bisphosphate 3-kinase catalytic subunit beta isoform (Homo sapiens, UniProt P42338)
Assay: Inhibition of PI3Kbeta (unknown origin)

IC50: 2700 nM
SMILES: O=C1NC(=O)/C(=C/c2ccc3nccnc3c2)S1
